The record followed here is the supplement of paper PMC6411743.

Sequences of proteins named here, by UniProt entry; tags and fusion partners are left off. A change or cut given only in a name is not applied to a line headed by its entry.
UniProt P22570: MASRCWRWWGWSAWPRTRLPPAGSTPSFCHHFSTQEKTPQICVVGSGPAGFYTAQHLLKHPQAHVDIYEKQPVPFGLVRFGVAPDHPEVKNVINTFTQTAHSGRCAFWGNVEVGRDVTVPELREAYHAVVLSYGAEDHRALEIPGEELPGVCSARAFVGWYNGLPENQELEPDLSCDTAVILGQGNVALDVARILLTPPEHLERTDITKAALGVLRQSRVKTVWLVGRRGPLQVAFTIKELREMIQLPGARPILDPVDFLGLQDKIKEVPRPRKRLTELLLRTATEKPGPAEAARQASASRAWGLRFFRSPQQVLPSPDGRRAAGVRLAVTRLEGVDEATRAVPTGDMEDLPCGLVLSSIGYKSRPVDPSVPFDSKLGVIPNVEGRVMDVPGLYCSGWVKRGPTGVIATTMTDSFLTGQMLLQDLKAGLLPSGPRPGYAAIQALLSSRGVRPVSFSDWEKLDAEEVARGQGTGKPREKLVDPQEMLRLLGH
UniProt P49459, whole entry: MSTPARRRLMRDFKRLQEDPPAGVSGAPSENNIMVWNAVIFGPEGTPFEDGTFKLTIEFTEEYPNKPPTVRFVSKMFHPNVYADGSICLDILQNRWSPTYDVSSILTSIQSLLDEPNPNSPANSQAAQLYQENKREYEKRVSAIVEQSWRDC
UniProt P31641: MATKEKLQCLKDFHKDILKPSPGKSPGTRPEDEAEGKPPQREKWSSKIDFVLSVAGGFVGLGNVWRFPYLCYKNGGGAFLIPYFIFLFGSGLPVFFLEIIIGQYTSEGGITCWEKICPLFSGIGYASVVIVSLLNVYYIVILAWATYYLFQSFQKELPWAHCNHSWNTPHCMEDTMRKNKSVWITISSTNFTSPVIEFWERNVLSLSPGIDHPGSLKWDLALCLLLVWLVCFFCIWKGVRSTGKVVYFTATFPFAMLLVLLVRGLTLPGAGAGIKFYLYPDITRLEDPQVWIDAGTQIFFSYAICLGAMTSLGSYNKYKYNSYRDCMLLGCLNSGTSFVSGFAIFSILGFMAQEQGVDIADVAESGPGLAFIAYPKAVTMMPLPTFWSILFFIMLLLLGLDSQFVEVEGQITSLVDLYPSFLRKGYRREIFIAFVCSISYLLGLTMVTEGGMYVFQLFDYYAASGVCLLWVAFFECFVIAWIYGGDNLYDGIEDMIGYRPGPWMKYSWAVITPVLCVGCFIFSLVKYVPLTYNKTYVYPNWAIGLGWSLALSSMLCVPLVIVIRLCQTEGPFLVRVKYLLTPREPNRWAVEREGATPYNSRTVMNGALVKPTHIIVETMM
UniProt Q9BVL4, whole entry: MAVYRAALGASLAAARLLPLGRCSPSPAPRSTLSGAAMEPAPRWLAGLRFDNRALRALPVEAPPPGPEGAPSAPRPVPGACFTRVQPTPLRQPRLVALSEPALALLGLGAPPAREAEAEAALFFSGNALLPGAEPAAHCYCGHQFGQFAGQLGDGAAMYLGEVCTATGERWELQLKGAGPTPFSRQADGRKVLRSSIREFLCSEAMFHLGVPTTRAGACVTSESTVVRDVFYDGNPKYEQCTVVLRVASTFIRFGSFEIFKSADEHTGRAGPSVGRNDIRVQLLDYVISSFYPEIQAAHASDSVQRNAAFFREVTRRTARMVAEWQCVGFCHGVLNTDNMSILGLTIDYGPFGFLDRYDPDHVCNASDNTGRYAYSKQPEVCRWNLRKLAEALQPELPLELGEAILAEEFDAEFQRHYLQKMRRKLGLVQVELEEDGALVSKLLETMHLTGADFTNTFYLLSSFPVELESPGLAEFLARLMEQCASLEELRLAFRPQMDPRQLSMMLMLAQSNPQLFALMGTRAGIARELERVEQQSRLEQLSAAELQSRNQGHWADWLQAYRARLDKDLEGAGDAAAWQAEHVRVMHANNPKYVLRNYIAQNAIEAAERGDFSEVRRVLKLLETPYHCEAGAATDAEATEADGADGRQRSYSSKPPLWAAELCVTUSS
UniProt Q6UXD5: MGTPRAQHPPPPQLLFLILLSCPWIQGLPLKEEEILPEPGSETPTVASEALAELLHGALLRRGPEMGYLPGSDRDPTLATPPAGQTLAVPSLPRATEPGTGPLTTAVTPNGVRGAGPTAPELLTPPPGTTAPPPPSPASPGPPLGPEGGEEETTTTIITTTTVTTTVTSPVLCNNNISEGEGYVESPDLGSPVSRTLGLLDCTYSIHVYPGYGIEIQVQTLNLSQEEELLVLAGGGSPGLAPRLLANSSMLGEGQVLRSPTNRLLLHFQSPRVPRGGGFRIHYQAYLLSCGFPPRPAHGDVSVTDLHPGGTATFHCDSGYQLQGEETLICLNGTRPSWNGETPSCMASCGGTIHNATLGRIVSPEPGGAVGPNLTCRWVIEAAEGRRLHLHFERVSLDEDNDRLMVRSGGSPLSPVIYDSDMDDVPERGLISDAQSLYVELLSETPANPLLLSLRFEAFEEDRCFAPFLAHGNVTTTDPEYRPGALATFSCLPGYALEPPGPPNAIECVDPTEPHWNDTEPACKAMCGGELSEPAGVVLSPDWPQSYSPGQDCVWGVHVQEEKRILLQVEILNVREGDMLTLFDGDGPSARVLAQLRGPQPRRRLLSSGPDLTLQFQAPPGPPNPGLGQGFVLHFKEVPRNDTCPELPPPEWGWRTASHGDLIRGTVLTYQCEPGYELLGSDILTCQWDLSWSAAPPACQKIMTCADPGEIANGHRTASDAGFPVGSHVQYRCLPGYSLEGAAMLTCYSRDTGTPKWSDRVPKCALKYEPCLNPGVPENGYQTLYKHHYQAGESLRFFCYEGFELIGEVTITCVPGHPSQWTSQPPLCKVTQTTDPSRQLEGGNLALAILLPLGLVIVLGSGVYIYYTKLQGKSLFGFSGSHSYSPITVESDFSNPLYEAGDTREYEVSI
UniProt Q13617, whole entry: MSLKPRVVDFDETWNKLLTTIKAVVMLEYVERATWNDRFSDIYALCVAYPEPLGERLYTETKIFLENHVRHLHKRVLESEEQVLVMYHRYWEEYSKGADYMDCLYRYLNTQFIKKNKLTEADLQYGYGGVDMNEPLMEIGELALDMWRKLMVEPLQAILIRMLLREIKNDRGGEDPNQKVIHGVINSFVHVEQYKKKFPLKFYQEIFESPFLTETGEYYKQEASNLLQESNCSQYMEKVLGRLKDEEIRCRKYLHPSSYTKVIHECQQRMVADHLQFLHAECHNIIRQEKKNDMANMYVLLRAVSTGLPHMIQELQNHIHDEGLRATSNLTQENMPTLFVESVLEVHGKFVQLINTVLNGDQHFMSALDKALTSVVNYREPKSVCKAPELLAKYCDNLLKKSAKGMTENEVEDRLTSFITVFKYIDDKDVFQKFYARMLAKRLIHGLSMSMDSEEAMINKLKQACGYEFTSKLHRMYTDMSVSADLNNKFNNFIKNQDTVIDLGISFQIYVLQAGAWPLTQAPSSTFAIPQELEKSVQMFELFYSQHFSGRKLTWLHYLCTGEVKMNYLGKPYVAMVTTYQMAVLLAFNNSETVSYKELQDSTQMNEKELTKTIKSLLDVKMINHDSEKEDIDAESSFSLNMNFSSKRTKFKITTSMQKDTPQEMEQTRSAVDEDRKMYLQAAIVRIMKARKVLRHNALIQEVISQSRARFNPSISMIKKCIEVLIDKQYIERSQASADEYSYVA
UniProt Q5VU97: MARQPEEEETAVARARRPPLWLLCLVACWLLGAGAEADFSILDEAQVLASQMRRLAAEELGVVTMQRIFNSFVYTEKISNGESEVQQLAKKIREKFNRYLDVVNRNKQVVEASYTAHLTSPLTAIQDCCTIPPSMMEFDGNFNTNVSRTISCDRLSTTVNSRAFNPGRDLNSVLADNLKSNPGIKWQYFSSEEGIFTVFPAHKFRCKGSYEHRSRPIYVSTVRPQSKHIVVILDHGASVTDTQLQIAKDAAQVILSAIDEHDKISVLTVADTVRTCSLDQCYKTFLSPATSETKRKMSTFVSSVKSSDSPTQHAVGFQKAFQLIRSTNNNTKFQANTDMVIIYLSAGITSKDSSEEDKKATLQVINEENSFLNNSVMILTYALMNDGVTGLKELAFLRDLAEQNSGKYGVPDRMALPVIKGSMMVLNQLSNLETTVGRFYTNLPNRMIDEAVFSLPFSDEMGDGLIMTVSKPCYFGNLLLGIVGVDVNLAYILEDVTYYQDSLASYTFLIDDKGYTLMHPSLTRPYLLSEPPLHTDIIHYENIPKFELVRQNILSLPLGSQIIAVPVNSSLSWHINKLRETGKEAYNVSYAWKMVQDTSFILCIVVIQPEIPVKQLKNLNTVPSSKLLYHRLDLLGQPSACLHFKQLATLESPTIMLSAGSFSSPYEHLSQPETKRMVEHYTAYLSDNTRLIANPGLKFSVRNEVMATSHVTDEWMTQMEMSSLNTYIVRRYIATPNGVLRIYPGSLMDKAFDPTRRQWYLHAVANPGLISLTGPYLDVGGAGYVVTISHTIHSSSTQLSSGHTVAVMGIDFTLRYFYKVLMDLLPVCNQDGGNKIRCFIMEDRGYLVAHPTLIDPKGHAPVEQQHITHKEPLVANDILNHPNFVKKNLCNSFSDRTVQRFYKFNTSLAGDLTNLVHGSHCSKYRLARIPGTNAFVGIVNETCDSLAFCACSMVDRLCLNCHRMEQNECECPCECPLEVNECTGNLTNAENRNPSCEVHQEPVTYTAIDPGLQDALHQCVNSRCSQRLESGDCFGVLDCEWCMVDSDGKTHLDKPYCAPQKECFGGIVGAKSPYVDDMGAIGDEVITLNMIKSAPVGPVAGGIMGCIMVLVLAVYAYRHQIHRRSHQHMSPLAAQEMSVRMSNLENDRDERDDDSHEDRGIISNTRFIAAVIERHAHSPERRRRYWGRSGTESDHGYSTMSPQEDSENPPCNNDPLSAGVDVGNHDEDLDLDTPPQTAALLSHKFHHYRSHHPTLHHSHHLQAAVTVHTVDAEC
UniProt P56556, whole entry: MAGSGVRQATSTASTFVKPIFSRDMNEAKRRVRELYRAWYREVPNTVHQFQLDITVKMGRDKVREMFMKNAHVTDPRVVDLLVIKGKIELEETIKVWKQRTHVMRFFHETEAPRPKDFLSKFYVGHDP
UniProt P04179: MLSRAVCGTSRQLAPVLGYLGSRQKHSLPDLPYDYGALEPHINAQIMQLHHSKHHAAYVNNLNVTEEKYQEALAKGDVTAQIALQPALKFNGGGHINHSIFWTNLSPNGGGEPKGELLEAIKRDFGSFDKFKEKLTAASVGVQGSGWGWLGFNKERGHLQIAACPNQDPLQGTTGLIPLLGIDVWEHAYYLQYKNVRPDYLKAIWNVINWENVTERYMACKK
UniProt Q8N5P1: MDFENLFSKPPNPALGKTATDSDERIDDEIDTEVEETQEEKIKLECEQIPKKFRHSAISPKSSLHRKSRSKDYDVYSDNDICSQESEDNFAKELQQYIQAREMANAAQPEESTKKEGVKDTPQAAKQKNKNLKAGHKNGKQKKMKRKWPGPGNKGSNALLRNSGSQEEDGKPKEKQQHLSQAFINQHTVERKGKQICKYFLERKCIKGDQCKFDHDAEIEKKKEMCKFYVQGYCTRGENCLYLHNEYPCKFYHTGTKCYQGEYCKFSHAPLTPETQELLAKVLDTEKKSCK
UniProt Q9Y666: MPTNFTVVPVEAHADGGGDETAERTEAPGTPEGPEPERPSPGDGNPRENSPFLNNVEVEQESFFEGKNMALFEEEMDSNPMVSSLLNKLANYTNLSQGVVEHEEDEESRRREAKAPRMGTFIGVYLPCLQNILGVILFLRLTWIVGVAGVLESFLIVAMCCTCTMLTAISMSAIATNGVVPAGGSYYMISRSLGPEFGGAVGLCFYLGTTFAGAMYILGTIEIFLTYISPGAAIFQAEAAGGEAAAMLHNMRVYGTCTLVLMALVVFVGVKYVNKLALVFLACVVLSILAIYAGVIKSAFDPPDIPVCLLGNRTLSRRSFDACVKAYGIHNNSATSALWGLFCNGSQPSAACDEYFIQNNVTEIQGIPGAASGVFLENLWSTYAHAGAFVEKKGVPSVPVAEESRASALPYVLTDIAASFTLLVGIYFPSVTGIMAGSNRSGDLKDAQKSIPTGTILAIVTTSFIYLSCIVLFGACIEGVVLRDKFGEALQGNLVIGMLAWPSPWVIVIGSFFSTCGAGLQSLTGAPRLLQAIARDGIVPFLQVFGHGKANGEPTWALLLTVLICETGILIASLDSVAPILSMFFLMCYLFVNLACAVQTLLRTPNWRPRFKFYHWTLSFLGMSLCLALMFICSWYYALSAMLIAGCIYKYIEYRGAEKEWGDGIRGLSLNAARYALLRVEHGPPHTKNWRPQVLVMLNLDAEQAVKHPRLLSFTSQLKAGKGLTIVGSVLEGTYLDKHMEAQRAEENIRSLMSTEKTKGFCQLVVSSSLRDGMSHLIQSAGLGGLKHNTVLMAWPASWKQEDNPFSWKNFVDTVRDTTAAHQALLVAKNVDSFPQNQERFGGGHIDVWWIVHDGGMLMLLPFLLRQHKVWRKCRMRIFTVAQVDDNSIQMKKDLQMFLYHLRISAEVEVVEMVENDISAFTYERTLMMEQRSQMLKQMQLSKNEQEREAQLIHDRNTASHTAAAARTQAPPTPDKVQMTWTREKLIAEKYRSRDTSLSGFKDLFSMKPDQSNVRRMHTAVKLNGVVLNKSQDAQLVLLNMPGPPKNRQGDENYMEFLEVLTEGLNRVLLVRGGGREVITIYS

± gives the standard deviation of the averaged measurements. Only a part is listed here, and it is no random draw.

Compound in one assay: Nc1ncnc2c1ncn2[C@@H]1O[C@H](COP(=O)(O)OP(=O)(O)NP(=O)(O)O)[C@@H](O)[C@H]1O [adenylyl imidodiphosphate]
The assay is described as follows: NP40-soluble protein abundance relative to vehicle (solubility fold change) (ratio); higher = more soluble protein in presence of AMP-PNP. The following applies: concentration: 8mM. The procedure, abridged:
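Jurkat crude lysate (Dounce-homogenised) was treated with eight concentrations from 0.1 to 10 mM for 10 min at room temperature, then 3 min at 37 °C. It was solubilised with 0.8% NP40 and benzonase (60 min, 4 °C) and ultracentrifuged, and the supernatant was TMT-labelled for LC-MS/MS. Intensities were vsn-normalised, and the value is the fold change against the NP40-processed vehicle per replicate, from three independent experiments.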
Regarding “A0A087WWH3|Q9NZM4 and related entries (UniProt Q9NZM4)”, the NP40-soluble protein abundance was determined as 1.009 ± 0.0079.

On to “A0A0C4DFN8|P22570 and related entries (UniProt P22570)”, for which the NP40-soluble protein abundance is 0.977 ± 0.012.

Take “A0A0C4DGA2|O75521 and related entries (UniProt O75521)”: the NP40-soluble protein abundance amounted to 1.06 ± 0.041.

“A0A087X1K9|O75608 and related entries (UniProt O75608)”: the NP40-soluble protein abundance came out at 0.966 ± 0.034.

With “A0A0G2JLB3|A0A0G2JNZ0|A0A0G2JNZ5|P04062 and related entries (UniProt P04062)”, the NP40-soluble protein abundance was found to be 0.972 ± 0.021.

Regarding A0A0D9SG71|P49459 (UniProt P49459), the NP40-soluble protein abundance was 1.02 ± 0.021.

A0A087X188|Q9UBW5 (UniProt Q9UBW5): the NP40-soluble protein abundance is 1.02 ± 0.036.

Take A0A0C4DFZ2|P15289 (UniProt P15289): the NP40-soluble protein abundance stood at 1.05 ± 0.021.

For the target SH3PXD2B (UniProt A1X283), the NP40-soluble protein abundance is 0.984 ± 0.042.

Take “A0A0A6YYJ5|E9PLY5 and related entries (UniProt Q9UPN3+H3BQK9+H3BPE1+E9PLY5)”: the NP40-soluble protein abundance came out at 0.9526 ± 0.0012.

For A0A0C4DGV9|P49917 (UniProt P49917), the NP40-soluble protein abundance was determined as 1.05 ± 0.073.

For the target A0A087WY96|P31641 (UniProt P31641), the NP40-soluble protein abundance came out at 1.03 ± 0.015.

As for “A0A0C4DGW2|P57768 and related entries (UniProt P57768)”, the NP40-soluble protein abundance stood at 0.989 ± 0.025.

With A0A087X0Q9|Q9BVL4 (UniProt Q9BVL4), the NP40-soluble protein abundance was 0.99 ± 0.028.

Regarding “A0A087WYL5|Q6UXD5-3|Q6UXD5-5|Q6UXD5-6|Q6UXD5 and related entries (UniProt Q6UXD5)”, the NP40-soluble protein abundance was 0.994 ± 0.047.

Turning to “A0A0A0MRY0|Q8WUA7 and related entries (UniProt Q8WUA7)”, the NP40-soluble protein abundance is 0.994 ± 0.011.

As to “A0A087WWC6|P01848 and related entries (UniProt Q6P4I7+P01848)”, the NP40-soluble protein abundance is 0.977 ± 0.032.

As for “A0A087WXF8|A0A087WXU5|A0A087WYF0|A0A0D9SEW3|E7EPF0 and related entries (UniProt Q9NP64)”, the NP40-soluble protein abundance turned out to be 1.03 ± 0.061.

As for A0A140T9T7|Q03518 (UniProt Q03518), the NP40-soluble protein abundance stood at 0.995 ± 0.032.

For “A0A0A0MTN0|Q13617 and related entries (UniProt Q13617)”, the NP40-soluble protein abundance was 0.92 ± 0.018.

For the target A0A0A0MQY7|Q5VU97 (UniProt Q5VU97), the NP40-soluble protein abundance was 0.9836 ± 0.0034.

In the case of “A0A0A0MRJ6|C9J0F2 and related entries (UniProt P22061)”, the NP40-soluble protein abundance amounted to 0.976 ± 0.041.

For the target “A0A0C4DGS0|P56556 and related entries (UniProt P56556)”, the NP40-soluble protein abundance amounted to 1.01 ± 0.068.

“A0A087X0C8|O15484 and related entries (UniProt O15484)”: the NP40-soluble protein abundance turned out to be 1 ± 0.03.

Regarding A0A087X0M4|Q9BWU0 (UniProt Q9BWU0), the NP40-soluble protein abundance worked out at 0.986 ± 0.021.

Take “A0A0A0MRF6|Q99996 and related entries (UniProt Q99996)”: the NP40-soluble protein abundance came to 0.944 ± 0.047.

Regarding “A0A0C4DFU2|P04179 and related entries (UniProt P04179)”, the NP40-soluble protein abundance came out at 1.07 ± 0.099.

Consider “A0A0A0MSM3|P46939 and related entries (UniProt P46939)”, for which the NP40-soluble protein abundance is 0.951 ± 0.012.

For the target “A0A0C4DGT6|Q96AP0 and related entries (UniProt Q96AP0)”, the NP40-soluble protein abundance amounted to 1.02 ± 0.032.

For “A0A140T9R1|A2ABJ5 and related entries (UniProt O75955)”, the NP40-soluble protein abundance was determined as 1.03 ± 0.074.

Consider “A0A0C4DG21|E7EP65 and related entries (UniProt Q9NYB9)”, for which the NP40-soluble protein abundance was 0.939 ± 0.04.

In the case of “A0A087X0R0|F5H6S1 and related entries (UniProt O15550)”, the NP40-soluble protein abundance was found to be 0.984 ± 0.041.

A0A0C4DGZ1|Q8N5P1 (UniProt Q8N5P1): the NP40-soluble protein abundance stood at 1.18 ± 0.025.

Regarding A0A0A0MRI1|Q8IXQ4 (UniProt Q8IXQ4), the NP40-soluble protein abundance amounted to 1.04 ± 0.034.

With A0A0G2JNW7|Q9Y666 (UniProt Q9Y666), the NP40-soluble protein abundance was 1.039 ± 0.0094.

Still in this assay, the particulars now being: concentration: 10mM.
Regarding “A0A087WWH3|Q9NZM4 and related entries (UniProt Q9NZM4)”, the NP40-soluble protein abundance is 1.05 ± 0.028.

In the case of “A0A0C4DFN8|P22570 and related entries (UniProt P22570)”, the NP40-soluble protein abundance was 0.976 ± 0.011.

As for “A0A0C4DGA2|O75521 and related entries (UniProt O75521)”, the NP40-soluble protein abundance stood at 1.08 ± 0.021.

As to “A0A087X1K9|O75608 and related entries (UniProt O75608)”, the NP40-soluble protein abundance amounted to 0.935 ± 0.044.

For the target “A0A0G2JLB3|A0A0G2JNZ0|A0A0G2JNZ5|P04062 and related entries (UniProt P04062)”, the NP40-soluble protein abundance is 0.998 ± 0.045.

Consider A0A0D9SG71|P49459 (UniProt P49459), for which the NP40-soluble protein abundance amounted to 1.01 ± 0.02.

For A0A087X188|Q9UBW5 (UniProt Q9UBW5), the NP40-soluble protein abundance was 1.05 ± 0.011.

As for A0A0C4DFZ2|P15289 (UniProt P15289), the NP40-soluble protein abundance worked out at 1.08 ± 0.048.

As for SH3PXD2B (UniProt A1X283), the NP40-soluble protein abundance came to 0.996 ± 0.038.

In the case of “A0A0A6YYJ5|E9PLY5 and related entries (UniProt Q9UPN3+H3BQK9+H3BPE1+E9PLY5)”, the NP40-soluble protein abundance was 0.976 ± 0.013.

In the case of A0A0C4DGV9|P49917 (UniProt P49917), the NP40-soluble protein abundance turned out to be 1.01 ± 0.056.

A0A087WY96|P31641 (UniProt P31641): the NP40-soluble protein abundance was determined as 0.995 ± 0.026.

Turning to “A0A0C4DGW2|P57768 and related entries (UniProt P57768)”, the NP40-soluble protein abundance came to 1 ± 0.014.

In the case of A0A087X0Q9|Q9BVL4 (UniProt Q9BVL4), the NP40-soluble protein abundance stood at 0.98 ± 0.024.

On to “A0A087WYL5|Q6UXD5-3|Q6UXD5-5|Q6UXD5-6|Q6UXD5 and related entries (UniProt Q6UXD5)”, for which the NP40-soluble protein abundance was found to be 0.998 ± 0.044.

Consider “A0A0A0MRY0|Q8WUA7 and related entries (UniProt Q8WUA7)”, for which the NP40-soluble protein abundance amounted to 1.05 ± 0.076.

As to “A0A087WWC6|P01848 and related entries (UniProt Q6P4I7+P01848)”, the NP40-soluble protein abundance was found to be 0.9923 ± 0.0095.

As for “A0A087WXF8|A0A087WXU5|A0A087WYF0|A0A0D9SEW3|E7EPF0 and related entries (UniProt Q9NP64)”, the NP40-soluble protein abundance was found to be 1.01 ± 0.061.

In the case of A0A140T9T7|Q03518 (UniProt Q03518), the NP40-soluble protein abundance turned out to be 0.972 ± 0.034.

As for “A0A0A0MTN0|Q13617 and related entries (UniProt Q13617)”, the NP40-soluble protein abundance is 0.894 ± 0.033.

With A0A0A0MQY7|Q5VU97 (UniProt Q5VU97), the NP40-soluble protein abundance worked out at 0.987 ± 0.017.

As to “A0A0A0MRJ6|C9J0F2 and related entries (UniProt P22061)”, the NP40-soluble protein abundance was 0.934 ± 0.069.

For “A0A0C4DGS0|P56556 and related entries (UniProt P56556)”, the NP40-soluble protein abundance came to 1.02 ± 0.11.

With “A0A087X0C8|O15484 and related entries (UniProt O15484)”, the NP40-soluble protein abundance is 1.01 ± 0.035.

For A0A087X0M4|Q9BWU0 (UniProt Q9BWU0), the NP40-soluble protein abundance came out at 1.01 ± 0.019.

As for “A0A0A0MRF6|Q99996 and related entries (UniProt Q99996)”, the NP40-soluble protein abundance came out at 0.961 ± 0.059.

Turning to “A0A0C4DFU2|P04179 and related entries (UniProt P04179)”, the NP40-soluble protein abundance was determined as 1.05 ± 0.086.

Turning to “A0A0A0MSM3|P46939 and related entries (UniProt P46939)”, the NP40-soluble protein abundance was 0.98 ± 0.024.

Take “A0A0C4DGT6|Q96AP0 and related entries (UniProt Q96AP0)”: the NP40-soluble protein abundance amounted to 1.03 ± 0.032.

Consider “A0A140T9R1|A2ABJ5 and related entries (UniProt O75955)”, for which the NP40-soluble protein abundance was 0.968 ± 0.072.

In the case of “A0A0C4DG21|E7EP65 and related entries (UniProt Q9NYB9)”, the NP40-soluble protein abundance was 0.968 ± 0.011.

Consider “A0A087X0R0|F5H6S1 and related entries (UniProt O15550)”, for which the NP40-soluble protein abundance worked out at 1.01 ± 0.079.

For A0A0C4DGZ1|Q8N5P1 (UniProt Q8N5P1), the NP40-soluble protein abundance is 1.25 ± 0.091.

Consider A0A0A0MRI1|Q8IXQ4 (UniProt Q8IXQ4), for which the NP40-soluble protein abundance turned out to be 1.05 ± 0.075.

Consider A0A0G2JNW7|Q9Y666 (UniProt Q9Y666), for which the NP40-soluble protein abundance was 1.01 ± 0.024.
